Screen size: about 320,000 compounds; about 22,000 (6.9%) were called active. Inconclusive means that the source gave no clear call. Such entries were picked first, then a sample of the others. Calls come from the whole dose curve; as a rule, active = well fitted inhibition curve with a large enough effect; inconclusive = small, poorly fitted or top-dose-only effect, or another doubt; inactive = no such curve, though single readings can be large or run the other way. A potency beside an inconclusive call is a rough fit, not a confirmed value. Where a SMILES comes first, the peptide text is derived from it. The star is where a group is joined. Boc = CC(C)(C)OC(=O)*
Assay: Primary qHTS for delayed death inhibitors of the malarial parasite plastid, 96 hour incubation
Conditions: P. falciparum luciferase reporter growth; series mostly up to 28.7 µM
Method in brief: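 Readout is luminescence from an integrated firefly luciferase in P. falciparum. Red cells, 2% hematocrit and 0.05% parasitemia final, were cultured with compound through two parasite generations (96 hours) at 37 C, 5% CO2.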
% is set by controls: 0 for no effect and ±100 for the full control effect; potency is the fitted concentration of half-maximal effect.

Row | Compound | Potency | activity change, negative = inhibition
1 | CC(NC(=O)c1cc(F)c(F)cc1Cl)c1ccncc1 (stereo unspecified) | inconclusive: 11.7 µM [inhibitor, single point] | –
2 | CCNc1nc(NCC)nc(SCCOC(=O)Nc2ccc(Cl)cc2Cl)n1 | inactive | –
3 | CCCCNC(=O)COC(=O)c1ccc(C)c(NC(=O)c2ccco2)c1 | inactive | –
4 | O=C(C(c1ccccc1)c1ccccc1)N1CCN(Cc2ccco2)CC1 | inconclusive: 10.4 µM [inhibitor, single point] | –
5 | COc1ccc(OC)c(N(CC(=O)Nc2cccnc2)S(=O)(=O)c2ccc(C)cc2)c1 | inconclusive: 18.5 µM [inhibitor, partial curve, poor fit] | –
6 | Cc1nc(COc2ccc(C(=O)Nc3ccccc3N3CCOCC3)cc2)cs1 | inconclusive: 10.4 µM [inhibitor, single point] | –
7 | Cc1ccc(C(=O)Cn2c3[n+](c4ccccc42)CC(O)CS3)cc1 (stereo unspecified) | inactive | –
8 | O=c1ccc2ccccc2n1Cc1cccc(F)c1 | inconclusive: 11.7 µM [inhibitor, partial curve] | –
9 | Cc1ccc(NC2CCCN(C(=O)Cc3nonc3C)C2)cc1C (stereo unspecified) | inconclusive: 13.1 µM [inhibitor, single point] | –
10 | CNC(=O)c1sccc1SCc1ccc(Cl)cc1Cl | inconclusive: 18.5 µM [inhibitor, single point] | –
11 | Cn1nccc1C(=O)Nc1cccc(C(F)(F)F)c1 | inconclusive: 13.1 µM [inhibitor, single point] | –
12 | O=C(Nc1ccc(-c2ccc(N3CCCCC3)nn2)cc1)c1ccco1 | inconclusive: 6.57 µM [inhibitor, partial curve, poor fit] | –
13 | CN(CC(=O)Nc1ccc(F)cc1)C(=O)COC(=O)c1ccc(-c2ccccc2)cc1 | inactive | –
14 | FC(F)(F)c1cccc(Cc2noc(CN3C[C@@H]4CCC[C@H]3C4)n2)c1 | inconclusive: 11.7 µM [inhibitor, single point] | –
15 | O=C(Cn1cnc2ccccc21)OCC(=O)N1CCc2ccccc2C1 | inconclusive: 14.7 µM [inhibitor, partial curve, poor fit] | –
16 | COc1cc(NC(=O)c2ccco2)c(OC)cc1NC(=O)c1cc(OC)c(OC)c(OC)c1 | active: 2.94 µM | –
17 | Brc1cccc(C2Nc3cccc4cccc(c34)N2)c1 | inconclusive: 10.4 µM [inhibitor, partial curve, poor fit] | –
18 | O=C(O)Cc1coc2ccc3ccccc3c12 | inconclusive: 0.0029 µM [inhibitor, full curve, poor fit] | –
19 | COc1ccc(C(=O)n2nc(C)c(Br)c2C)cc1OC | inactive | –
20 | Cc1cccc(C)c1OCc1cc(C(=O)NC2CCC(O)CC2)no1 (stereo unspecified) | inconclusive: 18.5 µM [inhibitor, single point] | –
21 | CCOc1nc2cnccc2n(CC(=O)Nc2ccccc2C(=O)OC)c1=O | inconclusive: 10.4 µM [inhibitor, single point] | –
22 | OCC1(Cc2ccccc2C(F)(F)F)CCN(Cc2ccccc2)CC1 | inconclusive: 9.28 µM [inhibitor, single point] | –
23 | O=C(O)CCCc1ccc(N(CCCl)CCCl)cc1 | inconclusive: 12 µM [inhibitor, partial curve] | –
24 | COc1ccc(NC(=O)c2ccccc2OCc2ccc(F)cc2)c(OC)c1 | inconclusive: 10.4 µM [inhibitor, single point] | –

Row | Compound | Potency | activity change, negative = inhibition
25 | Cc1cc(C)cc(N2CN=c3s/c(=C\c4ccco4)c(=O)n3C2)c1 | inactive | –
26 | COCCn1nc2cc(C(=O)NCc3cc(C(F)(F)F)cc(C(F)(F)F)c3)ccc2c1OC | inconclusive: 18.5 µM [inhibitor, single point] | –
27 | CC(C)C(=O)Nc1cccc(NC(=S)NC(=O)c2ccccc2Cl)c1 | inactive | –
28 | O=C(C1=C(O)C(=O)N(Cc2ccco2)C1c1ccccc1)c1cccs1 (stereo unspecified) | inconclusive: 0.928 µM [inhibitor, partial curve, poor fit] | –
29 | OCCCn1c(-c2ccccc2)nc(=S)c2c1CCCC2 | inconclusive: 1.04 µM [inhibitor, partial curve] | –
30 | COc1ccc(Cn2c(O)c(C=Nc3ccc(O)cc3)c3ccccc3c2=O)cc1 | active: 11.7 µM | –
31 | CCOC(=O)CNC(=O)Cn1cnc2c(nnn2-c2ccc(C)cc2)c1=O | inconclusive: 9.28 µM [inhibitor, single point] | –
32 | CCN(CC(=O)NCc1ccc(F)cc1)S(=O)(=O)c1ccc(C)cc1 | inactive | –
33 | CCN1C(=O)C(CC(=O)Nc2ccc(F)cc2)N(CCCN2CCN(c3ccc(F)cc3)CC2)C1=S (stereo unspecified) | inconclusive: 10.4 µM [inhibitor, single point] | –
34 | Cn1c(CNC(=O)CNC(=O)c2ccccc2)cc(=O)n(C)c1=O | inactive | –
35 | O=C(Cc1nc2ccccc2[nH]1)c1ccc(Cl)cc1 | inconclusive: 0.37 µM [inhibitor, full curve, poor fit] | –
36 | CCOC(=O)[C@H]1[C@H]2COc3ccc(Cl)cc3[C@@H]2N2C(=O)c3cc(Br)ccc3NC(=O)[C@@]12C | inconclusive: 9.28 µM [inhibitor, single point] | –
37 | Nc1sc2c([n+]1CCCS(=O)(=O)[O-])CCCC2 | – | inactive: 52.8% [at 5.75 µM]
38 | CCOC(=O)C1CCN(C(=O)CCCCn2c(=O)[nH]c3ccccc3c2=O)CC1 | inactive | –
39 | COc1cccc(CNc2nc(SC)ncc2CO)c1 | inconclusive: 18.5 µM [inhibitor, single point] | –
40 | O=P(O)(O)Cc1c(Cl)cccc1Cl | inactive | –
41 | CN1CCN(CCOc2ccc(-c3ccccc3)cc2)CC1 | inconclusive: 11.7 µM [inhibitor, partial curve] | –
42 | CCOc1ccc(CN2CCNC(=O)C2CC(=O)NC2CCCCCC2)cc1 (stereo unspecified) | inactive | –
43 | CC(=O)c1ccccc1NS(C)(=O)=O | inactive | –
44 | C=C(C)Cn1c(=O)c(NC(=O)c2ccccc2)c2n(c1=S)CCC2 | inconclusive: 16.5 µM [inhibitor, partial curve, poor fit] | –
45 | O=c1c2ccccc2nc(-c2ccco2)n1CCCn1ccnc1 | inconclusive: 14.7 µM [inhibitor, partial curve] | –
46 | COC1c2ccccc2C(=O)N1CCc1ccc(Cl)cc1 (stereo unspecified) | inconclusive: 20.8 µM [inhibitor, single point] | –
47 | O=C(c1ccc([N+](=O)[O-])cc1)N(Cc1ccc(Br)cc1)N1C(=O)CCCC1=O | inactive | –
48 | O=C(CSc1nc2ncccc2[nH]1)Nc1ccccc1-c1ccccc1 | inconclusive: 16.5 µM [inhibitor, single point] | –

Single values from above:
Potency, O=C(c1ccc([N+](=O)[O-])cc1)N(Cc1ccc(Br)cc1)N1C(=O)CCCC1=O is entered as inactive
Potency, OCCCn1c(-c2ccccc2)nc(=S)c2c1CCCC2 is entered as inconclusive: 1.04 µM [inhibitor, partial curve]
Potency, CCN1C(=O)C(CC(=O)Nc2ccc(F)cc2)N(CCCN2CCN(c3ccc(F)cc3)CC2)C1=S (stereo unspecified) is entered as inconclusive: 10.4 µM [inhibitor, single point]
Potency, CCOC(=O)[C@H]1[C@H]2COc3ccc(Cl)cc3[C@@H]2N2C(=O)c3cc(Br)ccc3NC(=O)[C@@]12C is entered as inconclusive: 9.28 µM [inhibitor, single point]
Potency, O=C(C1=C(O)C(=O)N(Cc2ccco2)C1c1ccccc1)c1cccs1 (stereo unspecified) is entered as inconclusive: 0.928 µM [inhibitor, partial curve, poor fit]

Later entries.

Row | Compound | Potency | activity change, negative = inhibition
49 | O=C1CC(=O)N(c2ccc(Cl)cc2Cl)C(=O)N1 | inconclusive: 2.94 µM [inhibitor, single point] | –
50 | OCCC1CN(Cc2cccc3c2OCO3)CCN1Cc1ccccc1 (stereo unspecified) | inconclusive: 11.7 µM [inhibitor, partial curve, poor fit] | –
51 | COc1ccc(OC)c(NC(=O)COc2coc(CN3CCc4ccccc43)cc2=O)c1 | inconclusive: 2.94 µM [inhibitor, full curve] | –
52 | CCOC(=O)c1ccc(NC(=O)Oc2cc(C)c(Cl)cc2C(C)C)cc1 | inconclusive: 10.4 µM [inhibitor, single point] | –
53 | CCOC(=O)C(CCCOc1ccccc1C)C(=O)OCC | active: 9.28 µM | –
54 | COc1ccc(C(=O)NCCCN(C)CCCNC(=O)c2ccc(OC)cc2)cc1 | inconclusive: 11.7 µM [inhibitor, partial curve, poor fit] | –
55 | Oc1ccccc1/C=C/c1noc(-c2ccccc2O)n1 | inconclusive: 5.22 µM [inhibitor, partial curve, poor fit] | –
56 | CCOc1ccc(NC(=O)CCC(=O)c2ccc(-c3ccccc3)cc2)cc1 | inconclusive: 18.5 µM [inhibitor, single point] | –
57 | CN(C)NC(=S)Nc1cccc(C(F)(F)F)c1 | inconclusive: 14.7 µM [inhibitor, partial curve, poor fit] | –
58 | Cc1c(C#N)c2ccccc2n1CC(=O)N1CCCC1 | inactive | –
59 | COc1ccc(/C=C2\SC(=O)N(CCNC(=O)C3CC4C=CC3C4)C2=O)cc1 (stereo unspecified) | inactive | –
60 | CN=C(NC#N)NCCSCc1csc(N=C(N)N)n1 | inactive | –
61 | O=C(C/C=N/OCc1ccccc1F)c1cnc(-c2ccc(Cl)cc2)s1 | inactive | –
62 | COc1cccc(C(=O)NNC(=O)Cc2ccc([N+](=O)[O-])cc2)c1 | inconclusive: 18.5 µM [inhibitor, partial curve, poor fit] | –
63 | COc1ccccc1/C=C1/C(=O)N(c2ccccc2)N=C1C | inconclusive: 11.7 µM [inhibitor, partial curve, poor fit] | –
64 | O=C(NC(NC(=O)c1ccccc1)c1ccccc1)c1ccccc1 | inconclusive: 18.5 µM [inhibitor, single point] | –
65 | CCc1ccc(NC(=O)CSc2nc3ccccc3c(=O)n2CCCN2CCC(C)CC2)cc1 | inactive | –
66 | Cc1ccc(/C(O)=C2/C(=O)C(=O)N(CCN3CCOCC3)C2c2cccs2)cc1 (stereo unspecified) | inactive | –
67 | CC(C)CC(NC(=O)C1CCCN1C(=O)OC(C)(C)C)C(=O)NCC(N)=O (stereo not drawn) (Boc-Pro-Leu-Gly-NH2; configuration not given here) | inconclusive: 1.85 µM [inhibitor, partial curve, poor fit] | –
68 | Cc1ccccc1C(=O)NC(=S)NCCc1ccccc1 | inactive | –
69 | Cc1cc(C)n(-c2ccc(C(=O)Nc3nnc(C4CC4)s3)cc2)n1 | inactive | –
70 | Cc1cccc(N/C=C/C(=O)c2cccs2)c1C | active: 4.65 µM | –
71 | Cc1cc2c(N=NC(=O)CCc3ccccc3)c(O)[nH]c2cc1Br | inconclusive: 0.0026 µM [inhibitor, full curve, poor fit] | –
